Reference: US20250283871A1, “COMPOSITIONS AND METHODS FOR MODULATING THE INTERACTION BETWEEN SS18-SSX FUSION ONCOPROTEIN AND NUCLEOSOMES” (Dana-Farber Cancer Institute, Inc., priority 2020, published 2025)

B1: SMARCA1 (protein, UniProt P28370 1-1042, looked up)
SWI/SNF-related …: MEQDTAAVAATVAAADATATIVVIEDEQPGPSTSQEEGAAAAATEATAATEKGEKKKEKNVSSFQLKLAAKAPKSEKEMDPEYEEKMKADRAKRFEFLLKQTELFAHFIQPSAQKSPTSPLNMKLGRPRIKKDEKQSLISAGDYRHRRTEQEEDEELLSESRKTSNVCIRFEVSPSYVKGGPLRDYQIRGLNWLISLYENGVNGILADEMGLGKTLQTIALLGYLKHYRNIPGPHMVLVPKSTLHNWMNEFKRWVPSLRVICFVGDKDARAAFIRDEMMPGEWDVCVTSYEMVIKEKSVFKKFHWRYLVIDEAHRIKNEKSKLSEIVREFKSTNRLLLTGTPLQNNLHELWALLNFLLPDVFNSADDFDSWFDTKNCLGDQKLVERLHAVLKPFLLRRIKTDVEKSLPPKKEIKIYLGLSKMQREWYTKILMKDIDVLNSSGKMDKMRLLNILMQLRKCCNHPYLFDGAEPGPPYTTDEHIVSNSGKMVVLDKLLAKLKEQGSRVLIFSQMTRLLDILEDYCMWRGYEYCRLDGQTPHEEREEAIEAFNAPNSSKFIFMLSTRAGGLGINLASADVVILYDSDWNPQVDLQAMDRAHRIGQKKPVRVFRLITDNTVEERIVERAEIKLRLDSIVIQQGRLIDQQSNKLAKEEMLQMIRHGATHVFASKESELTDEDITTILERGEKKTAEMNERLQKMGESSLRNFRMDIEQSLYKFEGEDYREKQKLGMVEWIEPPKRERKANYAVDAYFREALRVSEPKIPKAPRPPKQPNVQDFQFFPPRLFELLEKEILYYRKTIGYKVPRNPDIPNPALAQREEQKKIDGAEPLTPEETEEKEKLLTQGFTNWTKRDFNQFIKANEKYGRDDIDNIAREVEGKSPEEVMEYSAVFWERCNELQDIEKIMAQIERGEARIQRRISIKKALDAKIARYKAPFHQLRIQYGTSKGKNYTEEEDRFLICMLHKMGFDRENVYEELRQCVRNAPQFRFDWFIKSRTAMEFQRRCNTLISLIEKENMEIEERERAEKKKRATKTPMVKFSAFS
B2: RALY (protein, UniProt Q9UKM9 2-306, looked up)
RNA-binding protein Raly: SLKLQASNVTNKNDPKSINSRVFIGNLNTALVKKSDVETIFSKYGRVAGCSVHKGYAFVQYSNERHARAAVLGENGRVLAGQTLDINMAGEPKPDRPKGLKRAASAIYSGYIFDYDYYRDDFYDRLFDYRGRLSPVPVPRAVPVKRPRVTVPLVRRVKTNVPVKLFARSTAVTTSSAKIKLKSSELQAIKTELTQIKSNIDALLSRLEQIAAEQKANPDGKKKGDGGGAGGGGGGGGSGGGGSGGGGGGGSSRPPAPQENTTSEAGLPQGEARTRDDGDEEGLLTHSEEELEHSQDTDADDGALQ
B3: CDC5L (protein, UniProt Q99459 1-802, looked up)
Cell division cycle 5-like …: MPRIMIKGGVWRNTEDEILKAAVMKYGKNQWSRIASLLHRKSAKQCKARWYEWLDPSIKKTEWSREEEEKLLHLAKLMPTQWRTIAPIIGRTAAQCLEHYEFLLDKAAQRDNEEETTDDPRKLKPGEIDPNPETKPARPDPIDMDEDELEMLSEARARLANTQGKKAKRKAREKQLEEARRLAALQKRRELRAAGIEIQKKRKRKRGVDYNAEIPFEKKPALGFYDTSEENYQALDADFRKLRQQDLDGELRSEKEGRDRKKDKQHLKRKKESDLPSAILQTSGVSEFTKKRSKLVLPAPQISDAELQEVVKVGQASEIARQTAEESGITNSASSTLLSEYNVTNNSVALRTPRTPASQDRILQEAQNLMALTNVDTPLKGGLNTPLHESDFSGVTPQRQVVQTPNTVLSTPFRTPSNGAEGLTPRSGTTPKPVINSTPGRTPLRDKLNINPEDGMADYSDPSYVKQMERESREHLRLGLLGLPAPKNDFEIVLPENAEKELEEREIDDTYIEDAADVDARKQAIRDAERVKEMKRMHKAVQKDLPRPSEVNETILRPLNVEPPLTDLQKSEELIKKEMITMLHYDLLHHPYEPSGNKKGKTVGFGTNNSEHITYLEHNPYEKFSKEELKKAQDVLVQEMEVVKQGMSHGELSSEAYNQVWEECYSQVLYLPGQSRYTRANLASKKDRIESLEKRLEINRGHMTTEAKRAAKMEKKMKILLGGYQSRAMGLMKQLNDLWDQIEQAHLELRTFEELKKHEDSAIPRRLECLKEDVQRQQEREKELQHRYADLLLEKETLKSKF
B4: MPHOSPH8 (protein, UniProt Q99549 1-860, looked up)
M-phase phosphoprotein 8: MEQVAEGARVTAVPVSAADSTEELAEVEEGVGVVGEDNDAAARGAEAFGDSEEDGEDVFEVEKILDMKTEGGKVLYKVRWKGYTSDDDTWEPEIHLEDCKEVLLEFRKKIAENKAKAVRKDIQRLSLNNDIFEANSDSDQQSETKEDTSPKKKKKKLRQREEKSPDDLKKKKAKAGKLKDKSKPDLESSLESLVFDLRTKKRISEAKEELKESKKPKKDEVKETKELKKVKKGEIRDLKTKTREDPKENRKTKKEKFVESQVESESSVLNDSPFPEDDSEGLHSDSREEKQNTKSARERAGQDMGLEHGFEKPLDSAMSAEEDTDVRGRRKKKTPRKAEDTRENRKLENKNAFLEKKTVPKKQRNQDRSKSAAELEKLMPVSAQTPKGRRLSGEERGLWSTDSAEEDKETKRNESKEKYQKRHDSDKEEKGRKEPKGLKTLKEIRNAFDLFKLTPEEKNDVSENNRKREEIPLDFKTIDDHKTKENKQSLKERRNTRDETDTWAYIAAEGDQEVLDSVCQADENSDGRQQILSLGMDLQLEWMKLEDFQKHLDGKDENFAATDAIPSNVLRDAVKNGDYITVKVALNSNEEYNLDQEDSSGMTLVMLAAAGGQDDLLRLLITKGAKVNGRQKNGTTALIHAAEKNFLTTVAILLEAGAFVNVQQSNGETALMKACKRGNSDIVRLVIECGADCNILSKHQNSALHFAKQSNNVLVYDLLKNHLETLSRVAEETIKDYFEARLALLEPVFPIACHRLCEGPDFSTDFNYKPPQNIPEGSGILLFIFHANFLGKEVIARLCGPCSVQAVVLNDKFQLPVFLDSHFVYSFSPVAGPNKLFIRLTEAPSAKVKLLIGAYRVQLQ
B5: SRSF5 (protein, UniProt Q13243 1-272, looked up)
Serine/arginine-rich splicing …: MSGCRVFIGRLNPAAREKDVERFFKGYGRIRDIDLKRGFGFVEFEDPRDADDAVYELDGKELCSERVTIEHARARSRGGRGRGRYSDRFSSRRPRNDRRNAPPVRTENRLIVENLSSRVSWQDLKDFMRQAGEVTFADAHRPKLNEGVVEFASYGDLKNAIEKLSGKEINGRKIKLIEGSKRHSRSRSRSRSRTRSSSRSRSRSRSRSRKSYSRSRSRSRSRSRSKSRSVSRSPVPEKSQKRGSSSRSKSPASVDRQRSRSRSRSRSVDSGN
B6: SRSF7 (protein, UniProt Q16629 1-238, looked up)
Serine/arginine-rich splicing …: MSRYGRYGGETKVYVGNLGTGAGKGELERAFSYYGPLRTVWIARNPPGFAFVEFEDPRDAEDAVRGLDGKVICGSRVRVELSTGMPRRSRFDRPPARRPFDPNDRCYECGEKGHYAYDCHRYSRRRRSRSRSRSHSRSRGRRYSRSRSRSRGRRSRSASPRRSRSISLRRSRSASLRRSRSGSIKGSRYFQSPSRSRSRSRSISRPRSSRSKSRSPSPKRSRSPSGSPRRSASPERMD
B7: PUM3 (protein, UniProt Q15397 1-648, looked up)
Pumilio homolog 3: MEVKGKKQFTGKSTKTAQEKNRFHKNSDSGSSKTFPTRKVAKEGGPKVTSRNFEKSITKLGKKGVKQFKNKQQGDKSPKNKFQPANKFNKKRKFQPDGRSDESAAKKPKWDDFKKKKKELKQSRQLSDKTNYDIVVRAKQMWEILRRKDCDKEKRVKLMSDLQKLIQGKIKTIAFAHDSTRVIQCYIQYGNEEQRKQAFEELRDDLVELSKAKYSRNIVKKFLMYGSKPQIAEIIRSFKGHVRKMLRHAEASAIVEYAYNDKAILEQRNMLTEELYGNTFQLYKSADHRTLDKVLEVQPEKLELIMDEMKQILTPMAQKEAVIKHSLVHKVFLDFFTYAPPKLRSEMIEAIREAVVYLAHTHDGARVAMHCLWHGTPKDRKVIVKTMKTYVEKVANGQYSHLVLLAAFDCIDDTKLVKQIIISEIISSLPSIVNDKYGRKVLLYLLSPRDPAHTVREIIEVLQKGDGNAHSKKDTEVRRRELLESISPALLSYLQEHAQEVVLDKSACVLVSDILGSATGDVQPTMNAIASLAATGLHPGGKDGELHIAEHPAGHLVLKWLIEQDKKMKENGREGCFAKTLVEHVGMKNLKSWASVNRGAIILSSLLQSCDLEVANKVKAALKSLIPTLEKTKSTSKGIEILLEKLST

What follows are molecules tested on BAF complex subunits and histone proteins (assay: Mass spectrometry proteomics of purified HA-SS18 WT and HA-SS18-SSX1 complexes (Tables 5A-5E)). Conditions: HA-SS18SSX1_CHR_peptides: protein identified in the HA-SS18-SSX1 purification from solubilized chromatin (CHR), HEK-293T.
Parameters: species or system human
For B1, the “Total (total peptides)” value was 11 and the “Unique (unique peptides)” value was 11. With B2 the “Total (total peptides)” value was 11 and the “Unique (unique peptides)” value was 10. With B3 the “Total (total peptides)” value was 10 and the “Unique (unique peptides)” value was 10. In the case of B4, the “Total (total peptides)” value is reported as 11 and the “Unique (unique peptides)” value is reported as 10. With B5 the “Total (total peptides)” value was 11 and the “Unique (unique peptides)” value was 7. B6 was tested, and the “Total (total peptides)” value was 11 and the “Unique (unique peptides)” value was 6. With B7 the “Total (total peptides)” value was 11 and the “Unique (unique peptides)” value was 11.

Same assay, conditions: HA-SS18SSX1_CHR_peptides; total peptides of the identified protein
With B2 the Total was 1.

Same assay, conditions: HA-SS18SSX1_CHR_peptides; unique peptides of the identified protein
In the case of B2, the Unique is reported as 1.

Same assay, conditions: HA-SS18SSX1_NE_peptides: protein co-purified with HA-SS18-SSX1 BAF complexes from soluble nuclear extract (NE), HEK-293T cells
For B1, the “Total (peptides)” value was 2 and the “Unique (peptides)” value was 2. For B3, the “Total (peptides)” value was 2 and the “Unique (peptides)” value was 2.

Same assay, conditions: HA-SS18WT_CHR_peptides: HA-SS18 WT purification from nuclease-treated solubilized chromatin (CHR), HEK-293T; label = protein identified
For B1, the “Total (peptides)” value was 7 and the “Unique (peptides)” value was 7. In the case of B2, the “Total (peptides)” value is reported as 6 and the “Unique (peptides)” value is reported as 6. B3 was tested, and the “Total (peptides)” value was 9 and the “Unique (peptides)” value was 9. For B4, the “Total (peptides)” value was 5 and the “Unique (peptides)” value was 5. In the case of B6, the “Total (peptides)” value is reported as 6 and the “Unique (peptides)” value is reported as 4. In the case of B7, the “Total (peptides)” value is reported as 5 and the “Unique (peptides)” value is reported as 5.

Same assay, conditions: HA-SS18WT_CHR_peptides: protein identified in HA-SS18 WT BAF complex purification from nuclease-treated solubilized chromatin (CHR), HEK-293T
In the case of B5, the “Total (total peptides)” value is reported as 1 and the “Unique (unique peptides)” value is reported as 1.
